Test in all cases: two-hybrid; Dsn1 and its variants fused to Gal4-DBD (pGBKT7), Csm1 fused to Gal4-AD (pGADT7) in AH109; growth on SD-LEU-TRP-ADE-HIS plates at 30°C for 2-3 days
The target of assay [1] is Dsn1 (1-220B1A, Box1 alanine substituted) fused to Gal4-DBD (S. cerevisiae) (UniProt P40568).
Assay [2] concerns the target Dsn1 (1-220B3A, Box 3 alanine substituted) fused to Gal4-DBD (S. cerevisiae) (UniProt P40568).
Assay [3] deals with Dsn1 (1-220B2A, Box 2 alanine substituted) fused to Gal4-DBD (S. cerevisiae) (UniProt P40568).

The chains behind the UniProt entries cited, without tags or fusion partners. Where a name states a change or a piece, a line headed by the entry shows the natural chain unless it says otherwise.
UniProt P40568: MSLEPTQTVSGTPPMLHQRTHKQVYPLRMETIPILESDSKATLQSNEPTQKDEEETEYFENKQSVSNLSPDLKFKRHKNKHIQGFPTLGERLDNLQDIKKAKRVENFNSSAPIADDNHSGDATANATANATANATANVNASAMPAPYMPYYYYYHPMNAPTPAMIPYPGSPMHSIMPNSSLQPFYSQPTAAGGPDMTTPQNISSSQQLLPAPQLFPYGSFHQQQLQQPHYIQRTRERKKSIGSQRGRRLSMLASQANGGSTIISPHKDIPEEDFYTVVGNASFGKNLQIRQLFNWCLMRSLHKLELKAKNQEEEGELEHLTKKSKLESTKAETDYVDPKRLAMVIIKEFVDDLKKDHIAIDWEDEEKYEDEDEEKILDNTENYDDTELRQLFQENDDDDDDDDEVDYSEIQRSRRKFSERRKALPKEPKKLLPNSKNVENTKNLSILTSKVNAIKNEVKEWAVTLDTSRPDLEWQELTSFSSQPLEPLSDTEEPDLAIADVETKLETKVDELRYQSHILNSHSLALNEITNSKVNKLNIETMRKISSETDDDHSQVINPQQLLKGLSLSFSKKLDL

These results are taken from paper PMC3701701.

Results are given in words; binding and its absence hold for the method and conditions named. For part of these data: Binding can be weak; no strength is given. Where a sequence is shown, tags or fusion partners need not be part of it.

B1: Csm1 fused to Gal4-AD (protein, UniProt P25651 1-190)
chain: MDPLTVYKNSVKQQIDSADLLVANLVNENFVLSEKLDTKATEIKQLQKQIDSLNAQVKELKTQTSQQAENSEVIKDLYEYLCNVRVHKSYEDDSGLWFDISQGTHSGGSSDDYSIMDYKLGFVKGQAQVTEVIYAPVLKQRSTEELYSLQSKLPEYLFETLSFPLSSLNQFYNKIAKSLNKKREKKDETE
Take B1: the values for the binding result in assay [1], in assay [2] and in assay [3] were “binds”, “no binding” and “no binding”, respectively.
